Assay results reported in PubChem BioAssay AID651640 (Broad Institute, 2012).
Hit rate of the full screen: of about 350,000 compounds, about 6,000 (1.7%) were called active. This list was built around the results that the source calls inconclusive (neither active nor inactive); the mix of calls is not that of the screen. No stated cut-off is given here; in the data, active means CPE inhibition above about 20% (passing the limit was not always enough); inconclusive means no clear call, values can overlap the other calls; tested in BHK-21 cells.

experiment: protection of cells from dengue 2 killing – plate reader, single concentration, primary screen (AID 651640); details: DENV2-infected cells, cytopathic effect rescue, at 9.99 µM, hits give high values;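 further: 0% = median of neutral control wells and 100% = median of positive control wells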

Structure (SMILES) | CPE inhibition
Cc1ccc(S(=O)(=O)N(C)C[C@H]2Oc3ccc(NC(=O)c4ccncc4)cc3C(=O)N([C@H](C)CO)C[C@H]2C)cc1 | active: 41.7%
CC(C)NC(=O)NCC[C@@H]1CC[C@H](NC(=O)CCN2CCCCC2)[C@@H](CO)O1 | inactive: -1.44%
C[C@H](CO)N1C[C@H](C)[C@H](CN(C)C(=O)C2CCC2)Oc2ncc(/C=C/c3ccccc3)cc2C1=O | inconclusive: 20.7%
COc1ccc(-c2ccc3sc4ccccc4c(=O)c3c2)cn1 | inconclusive: 62.8%
Cc1noc(C)c1NC(=O)Nc1ccc2c(c1)C(=O)N([C@H](C)CO)C[C@@H](C)[C@@H](CN(C)C(=O)NC(C)C)OCCCC[C@@H](C)O2 | inconclusive: 74.1%
COCC(=O)Nc1ccc2c(c1)[C@H]1C[C@H](CC(=O)O)O[C@H](CO)[C@H]1O2 | inconclusive: 22.5%
C[C@@H]1CN([C@@H](C)CO)C(=O)c2cccc(NS(=O)(=O)c3cn(C)cn3)c2O[C@H]1CN(C)CC1CCCCC1 | active: 33.1%
O=C(C[C@H]1C=C[C@H](NC(=O)C2CC2)[C@@H](CO)O1)NCc1ccncc1 | inactive: 4.31%
Cc1ccc(S(=O)(=O)Nc2ccc3c(c2)C(=O)N([C@H](C)CO)C[C@@H](C)[C@H](CN(C)C(=O)Nc2ccc4c(c2)OCO4)OCCCC[C@@H](C)O3)cc1 | inactive: -5.67%
Cc1nc2ccccc2n1C(c1cccnc1)c1nc2ccccc2[nH]1 (configuration not stated) | active: 38%
COc1ccc(Cl)cc1NC(=O)NCc1ccc2c(c1)OCO2 | inactive: 14%
O=C(CN1CCN(c2cccc(C(F)(F)F)c2)CC1)N(C1CCCC1)C1CCS(=O)(=O)C1 (configuration not stated) | active: 50.8%
COc1cccc(NC(=O)C2C(c3ccccc3)C2(Cl)Cl)c1 (configuration not stated) | inconclusive: 26.8%
CC1(C)c2ccccc2C(=O)c2ccccc21 | inactive: 6.45%
Cc1ccc(S(=O)(=O)N[C@H]2C=C[C@H](CC(=O)O)O[C@@H]2CO)cc1 | inactive: -5.03%
COc1ccc(-c2csc(N(CCCN(C)C)C(=O)c3cc(OC)c(OC)c(OC)c3)n2)cc1 | inconclusive: 25%
C/C(CC(=O)Nc1cccc(F)c1)=N\NC(=O)c1ccncc1 | inconclusive: 23.8%
C[C@H]1CCCCO[C@@H](CN(C)Cc2ccncc2)[C@@H](C)CN([C@@H](C)CO)C(=O)c2cc(NC(=O)NC3CCCCC3)ccc2O1 | inconclusive: 23.2%
Cc1c(OCC(=O)N2CCC(C(N)=O)CC2)ccc2c1oc(=O)c1ccccc12 | inconclusive: 65.6%
CC(=O)c1cccc(-c2cnc3c(NC=O)cc(-c4ccc(N(C)C)cc4)cn23)c1 | inconclusive: 20.5%
O=C1[C@H]2[C@@H](c3ccccc3)N[C@]3(CCCN(Cc4ccc(Br)cc4)C3=O)[C@H]2C(=O)N1Cc1ccccc1 | inactive: -2.25%
CC(C)CC#Cc1ccc2c(c1)O[C@@H](CN(C)C(=O)NC(C)C)[C@H](C)CN([C@@H](C)CO)S2(=O)=O | inconclusive: 27.6%
CO[C@H]1CN(C)C(=O)c2cc(NC(=O)Cc3ccccc3)ccc2OC[C@H](C)N(C(C)=O)C[C@H]1C | inconclusive: 39.8%
C#CCOCCOCCOCCNc1nc(N2CCOCC2)nc(N2CCN(C(=O)[C@H](Cc3ccc(O)cc3)n3cc([C@@H](N)CC(C)C)nn3)CC2)n1 | active: 20.4%

Arranged by SMILES length (smallest number first): part of the list above.
Structure (SMILES) | CPE inhibition
COCC(=O)Nc1ccc2c(c1)[C@H]1C[C@H](CC(=O)O)O[C@H](CO)[C@H]1O2 | inconclusive: 22.5%
O=C1[C@H]2[C@@H](c3ccccc3)N[C@]3(CCCN(Cc4ccc(Br)cc4)C3=O)[C@H]2C(=O)N1Cc1ccccc1 | inactive: -2.25%
Cc1ccc(S(=O)(=O)Nc2ccc3c(c2)C(=O)N([C@H](C)CO)C[C@@H](C)[C@H](CN(C)C(=O)Nc2ccc4c(c2)OCO4)OCCCC[C@@H](C)O3)cc1 | inactive: -5.67%

(continued)

Structure (SMILES) | CPE inhibition
COc1ccc(S(=O)(=O)N2CCOCC2)c2ccccc12 | inconclusive: 41.7%
CC(C)N1CCN(Cc2ccncc2)CC1CCO (configuration not stated) | inactive: 10.8%
Cc1noc(C)c1S(=O)(=O)Nc1ccc2c(c1)C(=O)N([C@H](C)CO)C[C@H](C)[C@@H](CN(C)C(=O)Nc1ccc(F)cc1)OCCCC[C@H](C)O2 | inactive: -2.73%
COc1ccc(C(=O)CNc2ccccc2CO)cc1 | inactive: -1.71%
O=C(C(Cl)c1ccccc1)N1CCCC1 (configuration not stated) | inconclusive: 45.4%
CN1C(=O)c2cc(NS(=O)(=O)c3ccccc3Cl)ccc2OC[C@H]2O[C@H](CC(=O)O)CC[C@@H]21 | inconclusive: 53.8%
CCOC(=O)N1CCN(C(=O)CCS(=O)(=O)c2cc3c(cc2Cl)NC(=O)CO3)CC1 | active: 23.9%
COCCN(C(=O)COC(=O)CC(C)c1ccccc1)c1c(N)n(Cc2ccccc2)c(=O)[nH]c1=O (configuration not stated) | active: 30.7%
Cc1ccccc1CC1(CO)CCCN(Cc2ccc(C#CC(C)(C)O)cc2)C1 (configuration not stated) | inconclusive: 21.4%
COc1ccc(S(=O)(=O)N(C)C[C@H]2Oc3c(NC(=O)c4cc(C)nn4C)cccc3C(=O)N([C@@H](C)CO)C[C@@H]2C)cc1 | inactive: 2.83%
CC(=O)N[C@H]1C=C[C@@H](CC(=O)NCc2ccc(Cl)cc2)O[C@@H]1CO | inactive: 1.44%
COC(=O)C[C@@H]1CC[C@H]2[C@@H](COc3ccc(NC(=O)c4ccccc4)cc3C(=O)N2C)O1 | inconclusive: 35.8%
CC(=Nc1ccc(Cl)cc1N)c1c(O)cc(C)oc1=O | inconclusive: 47.5%
Cc1noc(C)c1NC(=O)Nc1ccc2c(c1)C(=O)N([C@@H](C)CO)C[C@@H](C)[C@H](CN(C)S(=O)(=O)c1ccc(Cl)cc1)O2 | active: 28.2%
O=C(Nc1ccccc1)N1CCCCN2[C@H](CO)[C@H](c3ccc(Br)cc3)[C@H]2C1 | active: 32.1%
CC(C)NC(=O)Nc1ccc2c(c1)CC(=O)N([C@@H](C)CO)C[C@@H](C)[C@H](CN(C)S(=O)(=O)c1ccc(F)cc1)O2 | active: 45.3%
CCCCn1c(N)c(N(CC)C(=O)c2cc(C)cc(C)c2)c(=O)[nH]c1=O | active: 35%
COCC#Cc1ccc2c(c1)O[C@@H](CN(C)Cc1ccc3c(c1)OCO3)[C@H](C)CN([C@H](C)CO)S2(=O)=O | inconclusive: 23.4%
O=C(Nc1ccccc1)N1CCCCN2[C@H](C1)[C@H](c1ccc(Br)cc1)[C@@H]2CO | inactive: 7.79%
CCCNC(=O)[C@@H]1[C@@H](CO)[C@@H]2Cn3c(ccc(-c4ccccc4F)c3=O)[C@H]1N2C(=O)CC | inactive: 7.62%
COCCNC(=O)C[C@@H]1C[C@@H]2c3cc(NS(=O)(=O)c4ccc(F)cc4)ccc3O[C@@H]2[C@H](CO)O1 | inconclusive: 22.7%
CCN(CC(=O)Nc1ccc2c(c1)OCCO2)C(=O)/C=C/c1ccc([N+](=O)[O-])cc1 | inconclusive: 22%
CC1(C(=O)NS(=O)(=O)Cc2cccc(Cl)c2)CCN1C(=O)c1ccc(C2CCCCC2)cc1 (configuration not stated) | active: 89.8%
CCCN1[C@H](C(=O)NC2Cc3ccccc3C2)[C@@H](CO)[C@@H]2Cn3c(ccc(C4=CCCC4)c3=O)[C@@H]21 | inactive: -3.4%

Structure (SMILES) | CPE inhibition
O=[N+]([O-])c1ccc(-[n+]2nc(-c3ccccc3)nn2-c2ccccc2)cc1 | inactive: -2.58%
COc1ccc(S(=O)(=O)NCc2cccnc2)cc1C(=O)N1CCCCC1 | inconclusive: 28.1%
Cc1cc(C(=O)N/N=C/c2c(C)n(C)c3ccccc23)n[nH]1 | inconclusive: 21.2%
O=C(C[C@@H]1CC[C@H]2[C@@H](COC[C@@H](O)CN2Cc2nccs2)O1)NCc1ccccc1Cl | inactive: -0.24%
C[C@@H]1CN([C@@H](C)CO)C(=O)Cc2cc(NS(=O)(=O)c3ccccc3)ccc2O[C@H]1CN(C)Cc1ccc(C(=O)Nc2ccccc2N)cc1 | inconclusive: 22%
CC(=O)Cc1nsc(NC(=O)c2cc(-c3ccccc3Cl)oc2C)n1 | inconclusive: 42%
CS(=O)(=O)c1ccc(Cl)c(NC(=O)Cc2c(Cl)cccc2Cl)c1 | inactive: -2.19%
Cn1ccc2c(-c3cccnc3)cc3c(c21)C1CCC3O1 (configuration not stated) | inconclusive: 45.5%
Cc1noc(C)c1S(=O)(=O)Nc1ccc2c(c1)C(=O)N([C@@H](C)CO)C[C@H](C)[C@@H](CN(C)C(=O)Nc1ccc(C(F)(F)F)cc1)O2 | inconclusive: 32.1%
COc1ccccc1C(=O)N1CC(=O)Nc2ccc(C)cc2C1c1ccc(F)cc1 (configuration not stated) | inconclusive: 24.2%
CCOC(=O)C1=C(Nc2ccccc2)CSC1 | inconclusive: 20.6%
COCc1cn(CC[C@@H]2CC[C@H](NC(=O)Nc3ccccc3)[C@@H](CO)O2)nn1 | inconclusive: 27.2%
Cc1ccc(S(=O)(=O)Nc2ccc3c(c2)C(=O)N([C@@H](C)CO)C[C@H](C)[C@@H](CN(C)C)OCCCC[C@H](C)O3)cc1 | inactive: 4.69%
Cc1ccc(N(C)C(=O)N2CCN(S(=O)(=O)c3ccc(C)cc3)CC2)cc1 | active: 58.8%
COC(=O)Nc1ccc(SCC(=O)c2ccccc2)cc1 | inconclusive: 31%
CCCCSc1nnc(CSc2ncccn2)n1C | inconclusive: 26.8%
COC(=O)c1ccc(-c2nc(-c3cccs3)no2)cc1 | inconclusive: 43.8%
CC(C)NC(=O)Nc1ccc2c(c1)CC(=O)N([C@@H](C)CO)C[C@H](C)[C@@H](CN(C)Cc1ccc(C(=O)O)cc1)O2 | inconclusive: 43.2%
Cc1ccc(S(=O)(=O)N[C@H]2CC[C@H](CCNC(=O)C3CCCC3)O[C@H]2CO)cc1 | active: 26.7%
CC1CN(C(=O)COC(=O)c2ccc(O)cc2)CC(C)O1 (configuration not stated) | inconclusive: 39.2%
COc1cccc(-c2ccc3c(c2)O[C@H](CN(C)Cc2cccnc2)[C@H](C)CN([C@@H](C)CO)S3(=O)=O)c1 | inconclusive: 4.94%
FC(F)(F)c1ccccc1CN1CCCC(N2CCN(c3ccccc3)CC2)C1 (configuration not stated) | inconclusive: 21%
Cn1c(SCC(=O)N2CCN(C(=O)c3ccco3)CC2)nnc1-c1ccc(NS(C)(=O)=O)cc1 | inactive: 0.756%
COC(=O)C1=C(COc2ccccc2)NC(=O)NC1c1ccc2ccccc2c1 (configuration not stated) | inactive: -14.7%
